# Data reported in patent USRE47607E1, “Luciferase signal enhancing compositions” (GENE STREAM PTY LTD, priority 2006, dated 2019).
# Some entries share one result that the patent states for a list of compounds. At least one compound was matched to its structure with a doubt left.
# Test system: non-secreted Gaussia luciferase
# Assay: non-secreted Gaussia luciferase activity in HeLa cell lysates
# Format: biochemical
# Details: salts at 150 mM in lysis buffer; FIG. 6
# Procedure: HeLa cells stably expressing non-secreted and destabilized Gaussia luciferase were plated onto 96-well plates and incubated overnight. Medium was removed and the cells lysed in 30 ul of lysis buffer per well. The lysis buffer (LB) comprised; 25 mM Tris pH 7.8; 0.1% NP40; 1 mM EDTA plus NaBr at concentrations of (from left to right) 0 mM, 150 mM, 0 mM and 75 mM. Luciferase activity was assayed by injecting 30 ul of an assay buffer (AB) comprising 25 mM Tris pH 7.8; 40 uM Cz plus NaBr at concentrations of (from left to right) 0 mM, 0 mM, 150 mM and 75 mM. Thus, the final concentration of NaBr was 75 mM in all samples, except the no salt controls. Results were expressed as relative light units (RLU) (See FIG. 2).
# HeLa cells stably expressing non-secreted and destabilized Gaussia luciferase were plated onto 96-well plates and incubated overnight. […] Luciferase activity was assayed at 40 min after addition of the lysis buffer (by injecting 60 ul of an assay buffer comprising 25 mM Tris pH 8.1; 1 mM EDTA, 2 mM Ascorbate; 26 uM Cz. Results were expressed as a % of the light units obtained in the absence of salt (see FIG. 3). […]
# Luciferase assays were performed as described in Example 7, except using the indicated concentrations of salt and EDTA in the lysis buffer. […] Results were expressed as a % of the light units obtained after 20 min lysis in the same lysis buffer (see FIG. 7). […]
smiles,measurement,value
"[Br-].[Rb+] [RbBr, rubidium bromide]",signal enhancement,> 5 fold
